We go through 1 substance from article PMC10679481.

Amino acid sequences for entries named in this document (tags omitted).
UniProt Q08828: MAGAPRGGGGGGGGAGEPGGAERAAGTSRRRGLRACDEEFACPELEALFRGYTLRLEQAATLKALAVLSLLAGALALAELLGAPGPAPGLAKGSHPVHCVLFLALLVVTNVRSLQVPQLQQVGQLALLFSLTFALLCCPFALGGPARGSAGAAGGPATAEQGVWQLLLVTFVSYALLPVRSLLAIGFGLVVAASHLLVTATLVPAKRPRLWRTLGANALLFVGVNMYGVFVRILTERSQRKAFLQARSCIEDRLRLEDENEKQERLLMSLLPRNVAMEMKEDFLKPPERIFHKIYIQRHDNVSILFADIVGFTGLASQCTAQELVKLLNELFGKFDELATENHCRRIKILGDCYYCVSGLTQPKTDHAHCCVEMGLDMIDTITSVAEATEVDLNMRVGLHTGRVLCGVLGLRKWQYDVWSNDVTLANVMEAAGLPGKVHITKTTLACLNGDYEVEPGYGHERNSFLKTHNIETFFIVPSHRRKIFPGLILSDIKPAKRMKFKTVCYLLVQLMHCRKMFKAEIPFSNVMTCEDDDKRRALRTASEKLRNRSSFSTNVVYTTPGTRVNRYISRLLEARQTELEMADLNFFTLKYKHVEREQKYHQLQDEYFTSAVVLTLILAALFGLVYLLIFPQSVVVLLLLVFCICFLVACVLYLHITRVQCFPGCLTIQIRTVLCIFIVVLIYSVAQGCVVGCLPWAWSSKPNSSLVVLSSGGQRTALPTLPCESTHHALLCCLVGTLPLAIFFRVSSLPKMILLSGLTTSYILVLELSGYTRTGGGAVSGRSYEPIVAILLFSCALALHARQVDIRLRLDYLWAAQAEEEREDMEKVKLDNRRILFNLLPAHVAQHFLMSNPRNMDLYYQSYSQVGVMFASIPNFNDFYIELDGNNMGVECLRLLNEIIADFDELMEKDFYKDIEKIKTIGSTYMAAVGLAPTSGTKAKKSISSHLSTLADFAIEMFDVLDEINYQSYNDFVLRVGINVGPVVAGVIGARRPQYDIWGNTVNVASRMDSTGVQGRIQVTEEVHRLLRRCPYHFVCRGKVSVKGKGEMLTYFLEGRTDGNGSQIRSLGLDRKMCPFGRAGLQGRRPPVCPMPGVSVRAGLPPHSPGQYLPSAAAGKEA

No constants are given. Whether binding was seen depends on the method and setting. In cells and extracts the contact can be indirect. Some binding calls cover weakened binding; strength is not graded here.

The target of the test is T1, TRIP-Br1 (human (endogenous in HeLa)) (UniProt Q9UHV2).
T1 sequence: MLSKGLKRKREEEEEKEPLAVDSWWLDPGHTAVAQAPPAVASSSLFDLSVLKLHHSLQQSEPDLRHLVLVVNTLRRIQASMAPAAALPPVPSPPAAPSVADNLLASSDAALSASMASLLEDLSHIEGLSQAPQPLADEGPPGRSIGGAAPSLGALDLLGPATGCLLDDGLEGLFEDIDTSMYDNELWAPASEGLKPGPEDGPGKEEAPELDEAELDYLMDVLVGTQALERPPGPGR
The test can be described thus: co-IP; nanobead-based SiMPull for cell populations: endogenous TRIP-Br1 pulled down from 10^5 HeLa cells with anti-TRIP-Br1-coated magnetic nanobeads, AC1 detected with anti-AC1 1st antibody and fluorophore-labeled 2nd antibody.

For the substance “adenylyl cyclase 1 (from UniProt Q08828 1-1119) (enzyme)”, the binding result is listed as “binds”.
